For one substance, binding results are on record in publication PMC10104629.

By UniProt entry, the sequences of proteins in these tests, tags left out.
UniProt P43268: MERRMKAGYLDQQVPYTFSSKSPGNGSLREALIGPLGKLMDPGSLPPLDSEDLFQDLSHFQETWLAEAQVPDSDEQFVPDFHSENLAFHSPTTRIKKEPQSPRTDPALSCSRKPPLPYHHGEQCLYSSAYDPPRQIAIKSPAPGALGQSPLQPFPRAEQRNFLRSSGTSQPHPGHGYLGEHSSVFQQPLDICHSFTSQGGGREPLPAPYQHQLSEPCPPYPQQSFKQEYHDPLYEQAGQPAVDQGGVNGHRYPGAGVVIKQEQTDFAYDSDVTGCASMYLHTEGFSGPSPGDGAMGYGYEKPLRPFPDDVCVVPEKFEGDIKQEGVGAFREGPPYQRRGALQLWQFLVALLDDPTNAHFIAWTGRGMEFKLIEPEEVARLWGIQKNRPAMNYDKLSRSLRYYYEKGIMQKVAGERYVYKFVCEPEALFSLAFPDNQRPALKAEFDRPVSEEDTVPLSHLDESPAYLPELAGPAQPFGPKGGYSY

In the assay the target is FLAG-ETV4 WT (human) (UniProt P43268). The experiment in a line: co-IP; lysates of UM-UC-3 cells stably transfected with empty vector, ETV4 WT or Y392F; immunoprecipitation with anti-FLAG, anti-PTK6 or control IgG at 4 °C overnight, Dynabeads Protein A, immunoblot with anti-FLAG or anti-PTK6. (In general: In western blotting, separated proteins are transferred to a membrane and probed.)

No constants are given. Whether binding was seen depends on the method and setting. Binding seen in cells or lysates may run through a third protein. Some binding calls cover weakened binding; strength is not graded here.

Regarding “Tyrosine kinase PTK6 (from UniProt Q13882 1-451) (enzyme)”, the binding result is on record as “binds”.
